Data: PubChem BioAssay AID192 (DTP/NCI, 2004)
The list shows only some results of the screen, not a fair sample: it is rich in T/C values a quarter to a half above the control, in often repeated tests (any T/C) and in doses without a T/C. Other doses and runs of a compound stand elsewhere. T/C is the treated group as % of the vehicle group. Some entries give survivors of the animals treated and no T/C: the source files T/C as zero there, which appears to mark a toxic dose or a test without result, not a measured value. Some doses without a T/C left all or most animals alive at the check, yet need not have been tolerated: survival well below the control is almost never listed, so the zero probably covers shortened survival too. Survivors were counted at the toxicity check, usually on the fifth day, unless a day is given; later deaths do not show. Schedule codes are those of the source, taken here to give the interval after Q, in days (D) or hours (H), and the number of doses after X. Some entries were tested several times; the values are given in rising order. For survival time, this PubChem deposit counts one and a half times the control or more as active, and values a quarter to a half above the control carry no call in these data; other NCI protocols may use other cut-offs.

Test system: BDF1 mice, B16 melanoma ip, median survival T/C
Assay: NCI In Vivo Anticancer Drug Screen. Data for tumor model B16 Melanoma (intraperitoneal) in B6D2F1 (BDF1) mice
Settings: T/C endpoint: median survival time, higher T/C = longer survival
Summary of the method: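 In this screen, activity was judged from survival or tumor size in treated versus vehicle-treated tumor-bearing mice, reported as T/C.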

[1] = dose: 4.0 mg/kg/injection, schedule: Q01DX009 (ip), vehicle: saline

Cc1[nH]c(=O)[nH]c(=O)c1N(CCF)CCCl was tested, and the T/C (dose: 5.0 mg/kg/injection, schedule: Q01DX009 (ip), vehicle: saline with Tween-80) was 125 % of control, the T/C (dose: 8.0 mg/kg/injection, schedule: Q01DX009 (ip), vehicle: saline with Tween-80) was 131 % of control and the T/C (dose: 8.4 mg/kg/injection, schedule: Q01DX009 (ip), vehicle: saline with Tween-80) was 140 % of control. For the same compound, the T/C (dose: 10.0 mg/kg/injection, schedule: Q01DX009 (ip), vehicle: Klucel (hydroxypropylcellulose) (HPC)) was 135 % of control, the T/C (dose: 16.0 mg/kg/injection, schedule: Q01DX009 (ip), vehicle: acid diluted with saline) was 125 % of control and the survivor count (dose: 20.0 mg/kg/injection, schedule: Q01DX009 (ip), vehicle: Klucel (hydroxypropylcellulose) (HPC)) was 6 of 6. For the same compound, the survivor count (dose: 23.0 mg/kg/injection, schedule: Q01DX009 (ip), vehicle: saline with Tween-80) was 10 of 10, the survivor count (dose: 32.0 mg/kg/injection, schedule: Q01DX009 (ip), vehicle: acid diluted with saline) was 8 of 10 and the survivor count (dose: 32.0 mg/kg/injection, schedule: Q01DX009 (ip), vehicle: saline with Tween-80) was 10 of 10. For the same compound, the survivor count (dose: 39.0 mg/kg/injection, schedule: Q01DX009 (ip), vehicle: saline with Tween-80) was 6 of 10, the survivor count (dose: 40.0 mg/kg/injection, schedule: Q01DX009 (ip), vehicle: Klucel (hydroxypropylcellulose) (HPC)) was 6 of 6 and the survivor count (dose: 64.0 mg/kg/injection, schedule: Q01DX009 (ip), vehicle: acid diluted with saline) was 4 of 10. For the same compound, the survivor count (dose: 64.0 mg/kg/injection, schedule: Q01DX009 (ip), vehicle: saline with Tween-80) was 1 of 10, the survivor count (dose: 64.0 mg/kg/injection, schedule: Q04DX003 (ip), vehicle: acid diluted with saline) was 9 of 10 and the survivor count (dose: 64.0 mg/kg/injection, schedule: Q04DX003 (ip), vehicle: saline with Tween-80) was 5 of 10. The survivor count (dose: 80.0 mg/kg/injection, schedule: Q01DX009 (ip), vehicle: Klucel (hydroxypropylcellulose) (HPC)) was 2 of 6, the survivor count (dose: 128.0 mg/kg/injection, schedule: Q01DX009 (ip), vehicle: acid diluted with saline) was 0 of 10 and the survivor count (dose: 128.0 mg/kg/injection, schedule: Q01DX009 (ip), vehicle: saline with Tween-80) was 0 of 10. The survivor count (dose: 128.0 mg/kg/injection, schedule: Q04DX003 (ip), vehicle: acid diluted with saline) was 10 of 10, the survivor count (dose: 128.0 mg/kg/injection, schedule: Q04DX003 (ip), vehicle: saline with Tween-80) was 0 of 10 and the survivor count (dose: 256.0 mg/kg/injection, schedule: Q04DX003 (ip), vehicle: acid diluted with saline) was 7 of 10. The survivor count (dose: 256.0 mg/kg/injection, schedule: Q04DX003 (ip), vehicle: saline with Tween-80) was 0 of 10.
In the case of FC(F)(F)C(=Cc1nc2ccccc2s1)C(F)(F)F, the survivor count (dose: 25.0 mg/kg/injection, schedule: Q01DX009 (ip), vehicle: Klucel (hydroxypropylcellulose) (HPC)) is reported as 10 of 10.
For O=C(NCCCN1CCOCC1)C(Oc1ccccc1)Oc1ccccc1, the survivor count (dose: 0.39 mg/kg/injection, schedule: Q01DX009 (ip), vehicle: Klucel (hydroxypropylcellulose) (HPC)) was 10 of 10, the survivor count (dose: 3.12 mg/kg/injection, schedule: Q01DX009 (ip), vehicle: Klucel (hydroxypropylcellulose) (HPC)) was 10 of 10 and the survivor count (dose: 6.25 mg/kg/injection, schedule: Q01DX009 (ip), vehicle: Klucel (hydroxypropylcellulose) (HPC)) was 9 of 10 and 10 of 10. The survivor count (dose: 12.5 mg/kg/injection, schedule: Q01DX009 (ip), vehicle: Klucel (hydroxypropylcellulose) (HPC)) was 10 of 10 and the survivor count (dose: 50.0 mg/kg/injection, schedule: Q01DX009 (ip), vehicle: Klucel (hydroxypropylcellulose) (HPC)) was 10 of 10.
With Cc1ccc(NC(=O)COc2ccc(Cl)cc2)c(C)c1 the survivor count (dose: 12.5 mg/kg/injection, schedule: Q01DX009 (ip), vehicle: saline with Tween-80) was 10 of 10, the survivor count (dose: 75.0 mg/kg/injection, schedule: Q01DX009 (ip), vehicle: Klucel (hydroxypropylcellulose) (HPC)) was 10 of 10 and the survivor count (dose: 150.0 mg/kg/injection, schedule: Q01DX009 (ip), vehicle: Klucel (hydroxypropylcellulose) (HPC)) was 10 of 10. The survivor count (dose: 300.0 mg/kg/injection, schedule: Q01DX009 (ip), vehicle: Klucel (hydroxypropylcellulose) (HPC)) was 10 of 10.
With S=C=NCc1cccc(CN=C=S)c1 the survivor count (dose: 7.5 mg/kg/injection, schedule: Q04DX003 (ip), vehicle: saline with Tween-80) was 9 of 10, the survivor count (dose: 15.0 mg/kg/injection, schedule: Q04DX003 (ip), vehicle: saline with Tween-80) was 6 of 10 and the survivor count (dose: 30.0 mg/kg/injection, schedule: Q04DX003 (ip), vehicle: saline with Tween-80) was 1 of 10.
With CCOC(=N)c1cn(C2OC(CO)C(O)C2O)c2ncnc(N)c12 (stereo not drawn) the survivor count (dose: 1.0 mg/kg/injection, schedule: Q01DX009 (ip), vehicle: saline) was 10 of 10, the survivor count (dose: 2.0 mg/kg/injection, schedule: Q01DX009 (ip), vehicle: saline) was 10 of 10 and the survivor count [1] was 10 of 10.
For NC(=O)c1ccc(N)nc1, the T/C (dose: 0.75 mg/kg/injection, schedule: Q01DX009 (ip), vehicle: saline) was 135 % of control, the survivor count (dose: 3.0 mg/kg/injection, schedule: Q01DX009 (ip), vehicle: saline) was 9 of 10 and the survivor count [1] was 10 of 10. For the same compound, the survivor count (dose: 6.0 mg/kg/injection, schedule: Q01DX009 (ip), vehicle: saline) was 9 of 10, the survivor count (dose: 8.0 mg/kg/injection, schedule: Q01DX009 (ip), vehicle: saline) was 10 of 10 and the survivor count (dose: 12.0 mg/kg/injection, schedule: Q01DX009 (ip), vehicle: saline) was 4 of 10. For the same compound, the survivor count (dose: 12.5 mg/kg/injection, schedule: Q04DX003 (ip), vehicle: saline) was 10 of 10 and the survivor count (dose: 25.0 mg/kg/injection, schedule: Q04DX003 (ip), vehicle: saline) was 10 of 10.
For CN(C)c1ccc(/C=C/c2cc[n+](C)cc2)cc1, the survivor count (dose: 3.0 mg/kg/injection, schedule: Q04DX003 (ip), vehicle: saline with Tween-80) was 10 of 10.
c1ccc([Te][Te]c2ccccc2)cc1 was tested, and the T/C (dose: 12.0 mg/kg/injection, schedule: Q01DX009 (ip), vehicle: saline with Tween-80) was 129 % of control and the T/C (dose: 24.0 mg/kg/injection, schedule: Q01DX009 (ip), vehicle: saline with Tween-80) was 142 % of control.
In the case of CC1(C)N=C(N)N=C(N)N1c1ccc(CNC(=O)Nc2ccc(S(=O)(=O)F)cc2)cc1, the T/C (dose: 100.0 mg/kg/injection, schedule: Q04DX003 (ip), vehicle: saline) is reported as 127 % of control, the T/C (dose: 200.0 mg/kg/injection, schedule: Q04DX003 (ip), vehicle: saline) is reported as 141 % of control and the T/C (dose: 400.0 mg/kg/injection, schedule: Q04DX003 (ip), vehicle: saline) is reported as 126 % of control.
With COc1cc(/C=N/NC(=O)N/N=C/c2cc(OC)c(OC)c(OC)c2)cc(OC)c1OC the survivor count (dose: 400.0 mg/kg/injection, schedule: Q01DX009 (ip), vehicle: Klucel (hydroxypropylcellulose) (HPC)) was 5 of 10.
